In publication PMC4412882:
These are yes or no findings as the source states them, for the method shown. Binding seen in cells or lysates may run through a third protein. Some entries that bind do so weakly or less than the wild type.

The chains behind the UniProt entries cited, without tags or fusion partners.
UniProt P28907: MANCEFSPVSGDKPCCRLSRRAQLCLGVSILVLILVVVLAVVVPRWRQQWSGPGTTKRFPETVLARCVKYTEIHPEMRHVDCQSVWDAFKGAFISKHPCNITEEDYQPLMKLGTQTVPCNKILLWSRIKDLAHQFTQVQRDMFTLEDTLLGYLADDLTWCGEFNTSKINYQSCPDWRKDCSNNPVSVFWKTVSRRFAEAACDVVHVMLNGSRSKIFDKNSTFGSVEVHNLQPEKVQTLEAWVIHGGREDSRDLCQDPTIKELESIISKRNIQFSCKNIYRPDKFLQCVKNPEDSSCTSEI

Target: Fgr (human (endogenous in HL-60)) (UniProt P09769)
Experiment: co-IP; Fgr or AhR antibody with protein A/G beads overnight at 4 °C on 250 μg precleared HL-60 whole cell lysate (M-PER buffer); cells untreated or cultured 48 h with 1 μM RA, 20 μM VAF347 or both; blots probed for the partners

- binding: binds
Substance: CD38 (from UniProt P28907 1-300) (receptor)
